Measured data: PubChem BioAssay AID1224830 (NIAID, 2016)
This is an unselected part of about 18,000 deposited reagents. About 2,900 of all reagents (16%) count as active. 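Calls are made per well; low scores hint the gene aids the LPS response, high scores that it dampens it.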 Repeated entries: four replicate wells of each siRNA pool. No sequences are given here.

Test: 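Regulators of TLR4 signalling towards TNF-alpha in macrophage-like cells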 (primary screen)
Cells: human THP-1 monocytic leukaemia cells, TNF dual-luciferase reporter clone, PMA-differentiated to macrophage-like cells
Reagents: siRNA pool against human genes, 50 nM
Time to read-out: LPS for 4 h, given about 3 days after siRNA transfection
Challenge: bacterial LPS (TLR4 ligand), 10 ng/ml
Measured: 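Ratio of firefly to renilla light, scaled to the plate median and expressed as a robust z-score per replicate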
Direction: TNF reporter robust z-score: higher = stronger TNF reporter response to LPS
Active means: 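Each well counts as active if its z-score is over 2.8 or under -1.5; controls are left without a call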

gene knocked down	TNF reporter robust z-score	call
FBXL8 (F-box and leucine rich repeat protein 8)	2.43	inactive
FBXL8 (F-box and leucine rich repeat protein 8)	1.45	inactive
FBXL8 (F-box and leucine rich repeat protein 8)	1.29	inactive
FBXL8 (F-box and leucine rich repeat protein 8)	1.07	inactive
CALHM4 (calcium homeostasis modulator family member 4)	-0.27	inactive
CALHM4 (calcium homeostasis modulator family member 4)	0.79	inactive
CALHM4 (calcium homeostasis modulator family member 4)	0.02	inactive
PUM3 (pumilio RNA binding family member 3)	-0.68	inactive
PUM3 (pumilio RNA binding family member 3)	-0.46	inactive
PUM3 (pumilio RNA binding family member 3)	-0.54	inactive
PUM3 (pumilio RNA binding family member 3)	-0.64	inactive
RASSF7 (Ras association domain family member 7)	-0.42	inactive
RASSF7 (Ras association domain family member 7)	-1.06	inactive
RASSF7 (Ras association domain family member 7)	-0.97	inactive
RASSF7 (Ras association domain family member 7)	-0.38	inactive
RIGI (RNA sensor RIG-I)	-0.31	inactive
RIGI (RNA sensor RIG-I)	-0.01	inactive
RIGI (RNA sensor RIG-I)	-0.6	inactive
RIGI (RNA sensor RIG-I)	-0.14	inactive
H1-4 (H1.4 linker histone, cluster member)	-0.61	inactive
H1-4 (H1.4 linker histone, cluster member)	-1.09	inactive
H1-4 (H1.4 linker histone, cluster member)	0.14	inactive
H1-4 (H1.4 linker histone, cluster member)	-0.2	inactive
SLC23A1	1.28	inactive
SLC23A1	1.57	inactive
SLC23A1	1.33	inactive
ENHO (energy homeostasis associated)	0.17	inactive
ENHO (energy homeostasis associated)	0.59	inactive
ENHO (energy homeostasis associated)	-0.42	inactive
ENHO (energy homeostasis associated)	0.35	inactive
LRRC74A (leucine rich repeat containing 74A)	-0.36	inactive
LRRC74A (leucine rich repeat containing 74A)	-0.06	inactive
LRRC74A (leucine rich repeat containing 74A)	0.2	inactive
LRRC74A (leucine rich repeat containing 74A)	0.04	inactive
ANKRD27 (ankyrin repeat domain 27)	0.05	inactive
ANKRD27 (ankyrin repeat domain 27)	0.59	inactive
ANKRD27 (ankyrin repeat domain 27)	0.67	inactive
ANKRD27 (ankyrin repeat domain 27)	0.93	inactive
ARFGAP3 (ARF GTPase activating protein 3)	-0.41	inactive
ARFGAP3 (ARF GTPase activating protein 3)	0	inactive
ARFGAP3 (ARF GTPase activating protein 3)	-1.18	inactive
ARFGAP3 (ARF GTPase activating protein 3)	5.07	active
DERA (deoxyribose-phosphate aldolase)	-1.27	inactive
DERA (deoxyribose-phosphate aldolase)	-1.26	inactive
DERA (deoxyribose-phosphate aldolase)	-0.87	inactive
DERA (deoxyribose-phosphate aldolase)	-1.03	inactive
LTV1 (LTV1 ribosome biogenesis factor)	0.53	inactive
LTV1 (LTV1 ribosome biogenesis factor)	1.98	inactive
LTV1 (LTV1 ribosome biogenesis factor)	2.27	inactive
LTV1 (LTV1 ribosome biogenesis factor)	1.03	inactive
MTMR7 (myotubularin related protein 7)	-0.17	inactive
MTMR7 (myotubularin related protein 7)	-1.11	inactive
MTMR7 (myotubularin related protein 7)	-1.33	inactive
MTMR7 (myotubularin related protein 7)	-0.94	inactive
DHCR24 (24-dehydrocholesterol reductase)	0.12	inactive
DHCR24 (24-dehydrocholesterol reductase)	-0.17	inactive
DHCR24 (24-dehydrocholesterol reductase)	-0.02	inactive
DHCR24 (24-dehydrocholesterol reductase)	0.86	inactive
ASNS (asparagine synthetase (glutamine-hydrolyzing))	-0.57	inactive
ASNS (asparagine synthetase (glutamine-hydrolyzing))	-0.17	inactive
ASNS (asparagine synthetase (glutamine-hydrolyzing))	0.55	inactive
ASNS (asparagine synthetase (glutamine-hydrolyzing))	0.93	inactive
KLHDC8B (kelch domain containing 8B)	-1.31	inactive
KLHDC8B (kelch domain containing 8B)	-0.44	inactive
KLHDC8B (kelch domain containing 8B)	-0.19	inactive
KLHDC8B (kelch domain containing 8B)	-0.77	inactive
GALNT15 (polypeptide N-acetylgalactosaminyltransferase 15)	1.45	inactive
GALNT15 (polypeptide N-acetylgalactosaminyltransferase 15)	0.85	inactive
GALNT15 (polypeptide N-acetylgalactosaminyltransferase 15)	2.02	inactive
GALNT15 (polypeptide N-acetylgalactosaminyltransferase 15)	1.49	inactive
H4C6 (H4 clustered histone 6)	-1.27	inactive
H4C6 (H4 clustered histone 6)	-1.03	inactive
H4C6 (H4 clustered histone 6)	0.41	inactive
H4C6 (H4 clustered histone 6)	-0.62	inactive
DPP8 (dipeptidyl peptidase 8)	0.7	inactive
DPP8 (dipeptidyl peptidase 8)	-0.44	inactive
DPP8 (dipeptidyl peptidase 8)	-1.21	inactive
DPP8 (dipeptidyl peptidase 8)	0.29	inactive
KIFAP3 (kinesin associated protein 3)	-1.68	active
KIFAP3 (kinesin associated protein 3)	0.15	inactive
KIFAP3 (kinesin associated protein 3)	-0.3	inactive
KIFAP3 (kinesin associated protein 3)	-0.33	inactive
FOSL2 (FOS like 2, AP-1 transcription factor subunit)	0.71	inactive
FOSL2 (FOS like 2, AP-1 transcription factor subunit)	0.51	inactive
FOSL2 (FOS like 2, AP-1 transcription factor subunit)	0.43	inactive
FOSL2 (FOS like 2, AP-1 transcription factor subunit)	1.14	inactive
CMTM3 (CKLF like MARVEL transmembrane domain containing 3)	-1.33	inactive
CMTM3 (CKLF like MARVEL transmembrane domain containing 3)	-1.05	inactive
CMTM3 (CKLF like MARVEL transmembrane domain containing 3)	-0.82	inactive
CMTM3 (CKLF like MARVEL transmembrane domain containing 3)	-1.23	inactive
RXFP4 (relaxin family peptide/INSL5 receptor 4)	-0.33	inactive
RXFP4 (relaxin family peptide/INSL5 receptor 4)	1.26	inactive
RXFP4 (relaxin family peptide/INSL5 receptor 4)	0.29	inactive
RXFP4 (relaxin family peptide/INSL5 receptor 4)	1.95	inactive
HPCAL4 (hippocalcin like 4)	-0.8	inactive
HPCAL4 (hippocalcin like 4)	-1.52	active
HPCAL4 (hippocalcin like 4)	-1.34	inactive
HPCAL4 (hippocalcin like 4)	-1.24	inactive
ONECUT1 (one cut homeobox 1)	-0.16	inactive
ONECUT1 (one cut homeobox 1)	0.6	inactive
ONECUT1 (one cut homeobox 1)	0.94	inactive
ONECUT1 (one cut homeobox 1)	1.54	inactive
CLIC6 (CLIC family member 6)	1.33	inactive
CLIC6 (CLIC family member 6)	-0.29	inactive
CLIC6 (CLIC family member 6)	-1.39	inactive
CLIC6 (CLIC family member 6)	0.73	inactive
BNIP5 (BCL2 interacting protein 5)	-0.22	inactive
BNIP5 (BCL2 interacting protein 5)	1.89	inactive
BNIP5 (BCL2 interacting protein 5)	0.34	inactive
BNIP5 (BCL2 interacting protein 5)	0.4	inactive
TP53TG5 (TP53 target 5)	0	inactive
TP53TG5 (TP53 target 5)	-0.28	inactive
TP53TG5 (TP53 target 5)	-1.02	inactive
TP53TG5 (TP53 target 5)	0.06	inactive
OLFML3 (olfactomedin like 3)	-0.22	inactive
OLFML3 (olfactomedin like 3)	0.73	inactive
OLFML3 (olfactomedin like 3)	-0.09	inactive
OLFML3 (olfactomedin like 3)	-0.74	inactive
RWDD1 (RWD domain containing 1)	0.43	inactive
RWDD1 (RWD domain containing 1)	1.45	inactive
RWDD1 (RWD domain containing 1)	-1.51	active
RWDD1 (RWD domain containing 1)	2.28	inactive
PGBDF (plakoglobin binding and degradation factor)	-0.68	inactive
PGBDF (plakoglobin binding and degradation factor)	-0.58	inactive
PGBDF (plakoglobin binding and degradation factor)	-0.7	inactive
PGBDF (plakoglobin binding and degradation factor)	0.18	inactive
MPL (MPL proto-oncogene, thrombopoietin receptor)	1.45	inactive
MPL (MPL proto-oncogene, thrombopoietin receptor)	3.21	active
MPL (MPL proto-oncogene, thrombopoietin receptor)	2.58	inactive
MPL (MPL proto-oncogene, thrombopoietin receptor)	2.79	inactive
ZNF699 (zinc finger protein 699)	-1.36	inactive
ZNF699 (zinc finger protein 699)	-1.26	inactive
ZNF699 (zinc finger protein 699)	-1.3	inactive
ZNF699 (zinc finger protein 699)	-1.42	inactive
CFAP161 (cilia and flagella associated protein 161)	-2.11	active
CFAP161 (cilia and flagella associated protein 161)	-1.59	active
CFAP161 (cilia and flagella associated protein 161)	-1.37	inactive
CFAP161 (cilia and flagella associated protein 161)	-1.27	inactive
PTPRC (protein tyrosine phosphatase receptor type C)	-1.45	inactive
PTPRC (protein tyrosine phosphatase receptor type C)	-0.93	inactive
PTPRC (protein tyrosine phosphatase receptor type C)	-0.44	inactive
PTPRC (protein tyrosine phosphatase receptor type C)	0.22	inactive
